According to the supplement of paper PMC5949888:
Most values lie at the floor of the assay. Slopes are relative: functional sequences can read slightly below zero.

test system: Saccharomyces cerevisiae PS128 hsf1 delta, HSF1(1-493) fusion; assay: growth estimate (transactivation domain function in HSF1 fusion, heat-shock survival) (a.u. (slope of normalised read count over time)); higher = stronger growth at 37°C, i.e. more transactivation activity; conditions: library: random library

| Substance | growth estimate |
| --- | --- |
| VRCGALDCGFRR | < -0.25 |
| LGRYRF | < -0.25 |
| FLYGPRSTEKSYY | < -0.25 |
| PVTGSKRDSYRVHIPQDGVP | < -0.25 |
| CGKGEASGLILTFRADKRTP | < -0.25 |
| NQYSSVISSLYDRA | < -0.25 |
| HSETLRISSRVRCLARGPEG | < -0.25 |
| VLYLITVRAVAMAPA | < -0.25 |
| SRCLVRWAASGKECGRRRDQ | < -0.25 |
| LPGRTGPSTGNGGRCAGKNK | < -0.25 |
| SKRHSSHTIRRLTSGRI | < -0.25 |
| AFLTSESL | < -0.25 |
| RYDYFPNKGRHCDGGARPQL | < -0.25 |
| IQAQPGLP | < -0.25 |
| SFSTIRDLRVHCG | < -0.25 |
| RYNGNPHAAGCGSHGWLPLH | < -0.25 |
| YSMFYSYERQNIRLHGRLRT | < -0.25 |
| VRRYVRIVSLGYARGKEVIS | -0.246 |
| VGCLPYKVKCSSQTPSRTTC | 0.069 |
| MDRGRKRAKGPVSHSTLDVS | < -0.25 |
| RYCTEQKVNHHRENP | < -0.25 |
| VGLQSCRRNDEILKNPHRWR | < -0.25 |
| TVSSGDGSFEVMSDGR | < -0.25 |
| WLRVAH | < -0.25 |
| LAEPPAAGESRMIIRRLCYD | -0.124 |

| Substance | growth estimate |
| --- | --- |
| CRNWEACPVSDHEFGTRLSG | < -0.25 |
| TPRLGKCVTLPGLPGICVF | -0.246 |
| RGCPVTPVT | -0.118 |
| PYVTVNVPRPILTRVY | < -0.25 |
| VGPSSALVILGRGCG | < -0.25 |
| HQTQSESYALLSLRRHALPR | < -0.25 |
| SSEGDELDGRRCMTQRHV | < -0.25 |
| LGF | < -0.25 |
| MAKTLWPVNVGSLNAGKDVW | < -0.25 |
| HHRERSHVSVRTASDSDPAL | < -0.25 |
| SGGCRRCL | < -0.25 |
| SVVPRQRLISIWAPVLCVFV | < -0.25 |
| TRYVRK | -0.231 |
| RRWGGMHGTDWMSTAAYKVR | < -0.25 |
| RTGLGNHQKFQFVERN | -0.246 |
| TKGRWRVGFVGWVPSVGQCA | < -0.25 |
| QATTRDSWTYPF | < -0.25 |
| RTRLTNPGFLLRPFPSFRDG | < -0.25 |
| QCTPSSVRFRVTCFHESVSS | < -0.25 |
| PLVFGGWLMAEL | < -0.25 |
| RSVVG | < -0.25 |
| VDAMSQLR | < -0.25 |
| RDHTPLGL | < -0.25 |
| STRIQVATLTRESPSY | < -0.25 |
| IYD | < -0.25 |

| Substance | growth estimate |
| --- | --- |
| SLGHFQLTTGSSIPWVIDRL | < -0.25 |
| LVAAQFNSTQRALVGVSFTS | < -0.25 |
| HLAVAGGDGEGVDMPSVTCL | < -0.25 |
| GVGLVHVEDIIPMCKGSSGR | < -0.25 |
| DEVIKGPADCWIKG | < -0.25 |
| LERRRCVARVR | < -0.25 |
| EFT | < -0.25 |
| FLSCSKEVPPTEGFVGGPVI | < -0.25 |
| LTCYLARTAK | < -0.25 |
| FLHRLST | < -0.25 |
| INIAVPPHLAGVSLVTPLVP | < -0.25 |
| CCRDKDPVFAGAGEAPLQVS | < -0.25 |
| EVFPEQLRVSSP | < -0.25 |
| SAGNEQTGCHSTF | < -0.25 |
| RCCPQFTGRRH | < -0.25 |
| VATERSLLSSAEIFLLATFD | < -0.25 |
| VVVFSRAS | < -0.25 |
| DHDKVLTPKNSTVRANDHVY | < -0.25 |
| WYWADSCFHRETPGYQQQVG | < -0.25 |
| RNSAPRL | < -0.25 |
| PTCLLVGRKSRMGLHRFVVS | < -0.25 |
| CTPIY | < -0.25 |
| PVRVCDL | < -0.25 |
| HRAALG | < -0.25 |
| LLEPEISSGVRVRRFAPTDQ | < -0.25 |

| Substance | growth estimate |
| --- | --- |
| LVCYLMPLTDRPAVVDPGLR | < -0.25 |
| VRPGNSHPANGDEGRAIEAT | < -0.25 |
| PDAEPGP | < -0.25 |
| HEIAHPYLRSWGP | < -0.25 |
| YEKLRVKPVFPARVFLSENR | < -0.25 |
| ARREDCGS | < -0.25 |
| LNRPECLKLGTHGNMRALET | < -0.25 |
| RKGMGPV | < -0.25 |
| KCGSSC | < -0.25 |
| TRNARSPCQSIHEGVDSPGL | < -0.25 |
| VRSRALPLIDSYRSVQSHYG | < -0.25 |
| KSSTCHHFLANNA | < -0.25 |
| VAFHAAGQSPAYEPS | < -0.25 |
| RERRAGVRVIIFN | < -0.25 |
| VSRWSIRPSVGHRTGSGAAS | < -0.25 |
| RLGGHRGARKCGLTTRMIRN | < -0.25 |
| ISKDSWATSLSKAVSHGR | < -0.25 |
| FEDVH | < -0.25 |
| RDCGDRHMKPNGRVDGCCQA | < -0.25 |
| GVISGFNLKRILISSLMSSA | < -0.25 |
| RTLDTHNQ | < -0.25 |
| WNCKRGKKARQHPGFVTEHG | < -0.25 |
| SDNRGHDGRTIS | < -0.25 |
| HYSEIDGDWEPL | < -0.25 |

4 entries drawn at random from the list so far, as already listed:

| Substance | growth estimate |
| --- | --- |
| CTPIY | < -0.25 |
| RTGLGNHQKFQFVERN | -0.246 |
| DHDKVLTPKNSTVRANDHVY | < -0.25 |
| TKGRWRVGFVGWVPSVGQCA | < -0.25 |
